Counter-ions that a name gives are not always drawn. Screen size: about 1,200 compounds; about 50 (4%) showed activity. Cut-off read from the data, not from the text of the source: all actives reach 1.3 or more but so do some inactives. Some of the results follow.
system: Lgr5 (MarsCy1-Lgr5-EGFP, U2OS); assay: cell-surface Lgr5 expression (SCi1 fluorescence, background-subtracted) relative to WT DMSO (fold of DMSO control); higher = more Lgr5 at the plasma membrane, active = hit call of the paper; settings: U2OS MarsCy1-Lgr5-EGFP stable; treatment time: overnight; 16 µM; library: Johns Hopkins Clinical Compound Library

Compound | cell-surface Lgr5 expression
C[C@H](CCC(=O)O)[C@H]1CC[C@H]2[C@@H]3C(=O)C[C@@H]4CC(=O)CC[C@]4(C)[C@H]3CC(=O)[C@]12C [Dehydrocholic acid] | inactive: 1.04
CCN(CC)CCNC(=O)c1cc(Br)c(N)cc1OC [Bromopride] | inactive: 1.21
Cc1cc2nc3c(=O)[nH]c(=O)nc-3n(C[C@H](O)[C@H](O)[C@H](O)COP(=O)(O)O)c2cc1C [Riboflavin phosphate sodium (Flavin monomucleotide)] | inactive: 0.932
CSCC[C@H](NC(=O)[C@H](Cc1c[nH]c2ccccc12)NC(=O)CCNC(=O)OC(C)(C)C)C(=O)N[C@@H](CC(=O)O)C(=O)N[C@@H](Cc1ccccc1)C(N)=O [Pentagastrin (N-t-Boc-β-Ala-Trp-Met-Asp-Phe)] | inactive: 0.827
CC(C)NNC(=O)c1ccncc1 [Iproniazid (Isonicotinic acid hydrazide)] | inactive: 0.919
CC(C)NNC(=O)c1ccncc1 [Iproniazid phosphate salt] | inactive: 0.865
O=C1c2cccc(O)c2C(=O)c2c(O)cccc21 [Danthron (1,8-Dihydroxyanthraquinone)] | inactive: 1.25
Nc1ccc(S(=O)(=O)O)cc1.Nc1ccc(S(=O)(=O)O)cc1.[Zn] [Sulfanilate Zinc (Sulfanilic acid)] | inactive: 0.983
[Al+3].[Al+3].[Al+3].[Al+3].[Al+3].[Al+3].[Bi+3].[Bi+3].[O-2].[O-2].[O-2].[O-2].[O-2].[O-2].[O-2].[O-2].[O-2].[O-2].[O-2].[O-2] [Bismuth aluminate] | inactive: 1.14
C#C[C@]1(O)CC[C@H]2[C@@H]3CCC4=Cc5oncc5C[C@]4(C)[C@H]3CC[C@@]21C [Danazol] | inactive: 0.899
O=c1cc[nH]c(=O)[nH]1 [Uracil] | inactive: 0.844
[Cl-].[Cl-].[Cl-].[In+3] [Indium(III) chloride] | inactive: 0.736
CN1CCCN=C1/C=C/c1cccs1 [Pyrantel] | inactive: 0.992
NNC(=O)c1ccncc1 [Isoniazid (Isonicotinic acid Hydrazide)] | inactive: 1.16
CN(C(=O)CCCOc1ccc2[nH]c(=O)ccc2c1)C1CCCCC1 [Cilostamide] | inactive: 1.06
CC1(C)O[C@@H]2C[C@H]3[C@@H]4C[C@H](F)C5=CC(=O)CC[C@]5(C)[C@H]4[C@@H](O)C[C@]3(C)[C@]2(C(=O)CO)O1 | active: 1.55
O=C(O)c1cccnc1 [Nicotinic Acid (niacin)] | inactive: 0.992
CCCCc1oc2ccccc2c1C(=O)c1cc(I)c(OCCN(CC)CC)c(I)c1 [Amiodarone] | inactive: 1.01
O=c1[nH]c(=O)n([C@H]2C[C@H](O)[C@@H](CO)O2)cc1I [Idoxuridine ((+)-5-Iodo-2'-deoxyuridine)] | inactive: 0.91
c1ccc2ccccc2c1 [Naphthalene] | inactive: 1.25
NCCc1ccc(O)c(O)c1 [Dopamine (3-Hydroxytyramine hydrochloride)] | active: 1.51
NCCc1ccc(O)c(O)c1 [3-hydroxytyramine (Dopamine)] | active: 1.43

Compound | cell-surface Lgr5 expression
O.O=C([O-])CN(CCN(CC(=O)[O-])CC(=O)[O-])CC(=O)[O-].[Ca+2].[Na+].[Na+] [Edetate calcium disodium (Calcium disodium versenate)] | inactive: 0.981
O.O=C([O-])CN(CCN(CC(=O)[O-])CC(=O)[O-])CC(=O)[O-].[Ca+2].[Na+].[Na+] | inactive: 1
O=C1O[C@H]([C@@H](O)CO)C(O)=C1[O-].O=C1O[C@H]([C@@H](O)CO)C(O)=C1[O-].[Ca+2] [Calcium L-ascorbate dihydrate] | inactive: 1.08
O.O.O.O.O.O.O.O=S(=O)([O-])[O-].[Fe+2] [Iron(II) sulfate heptahydrate] | inactive: 1.01
C[C@H](CS)C(=O)N1CCC[C@H]1C(=O)O [Captopril] | inactive: 1.23
CC1(C)O[C@@H]2C[C@H]3[C@@H]4C[C@H](F)C5=CC(=O)C=C[C@]5(C)[C@H]4[C@@H](O)C[C@]3(C)[C@]2(C(=O)CO)O1 [Flunisolide] | active: 1.47
CCCOC(=O)c1ccc(N)cc1 [Risocaine (N-Propyl-p-aminobenzoate)] | inactive: 1.06
C=CC[N+]1([C@H]2C[C@H]3[C@@H]4CC[C@H]5C[C@H](O)[C@@H](N6CCOCC6)C[C@]5(C)[C@H]4CC[C@]3(C)[C@H]2OC(C)=O)CCCC1 [Rocuronium bromide (Zemuron)] | inactive: 1.2
CC(C)(C)NC(=O)[C@H]1CC[C@H]2[C@@H]3CC[C@H]4NC(=O)C=C[C@]4(C)[C@H]3CC[C@]12C [Finasteride] | inactive: 1.17
C=CC1=C(C)/C(=C/c2[nH]c(Cc3[nH]c(/C=C4\NC(=O)C(C)=C4C=C)c(C)c3CCC(=O)O)c(CCC(=O)O)c2C)NC1=O [Bilirubin] | inactive: 0.974
Nc1nc(N)c2nc(-c3ccccc3)c(N)nc2n1 [Triamterene] | inactive: 1.22
C=C1CC[C@H](O)C/C1=C/C=C1\CCC[C@]2(C)[C@@H]([C@H](C)/C=C/[C@H](C)C(C)C)CC[C@@H]12 [Vitamin D2] | inactive: 0.772
C=C1CC[C@H](O)C/C1=C/C=C1\CCC[C@]2(C)[C@@H]([C@H](C)/C=C/[C@H](C)C(C)C)CC[C@@H]12 [Ergocalciferol] | inactive: 1.01
CC[C@H](C)C(=O)O[C@H]1C[C@H](O)C=C2C=C[C@H](C)[C@H](CC[C@@H]3C[C@@H](O)CC(=O)O3)[C@H]21 [Pravastatin lactone] | inactive: 1.09
Cn1nnc2c(C(N)=O)ncn2c1=O [Temozolomide] | inactive: 1.19
OC(CCN1CCCC1)(c1ccccc1)C1CCCCC1 (centres undefined) [Procyclidine] | inactive: 0.518
CCCC(O)C(CC)CO (centres undefined) [Ethohexadiol (2-Ethyl-1,3-hexanediol)] | inactive: 1.04
CC(C)C(=O)c1c(C(C)C)nn2ccccc12 [Ibudilast] | inactive: 1.29
C[N+](C)(C)C[C@H](O)CC(=O)[O-] (racemic) [DL-Carnitine hydrochloride (Levocarnitine)] | inactive: 1.15
CN(C)CCOC(c1ccccc1)c1ccc(Br)cc1 (centres undefined) [Bromodiphenhydramine hydrochloride] | inactive: 1
CCN(CC)CCOC(=O)c1ccc(N)cc1 [Procaine hydrochloride] | inactive: 0.937
CC[C@H](C)C(=O)O[C@H]1C[C@@H](C)C=C2C=C[C@H](C)[C@H](CC[C@@H]3C[C@@H](O)CC(=O)O3)[C@H]21 [Lovastatin (Mevinolin)] | inactive: 1.02

Compound | cell-surface Lgr5 expression
CC(C)=CCC[C@](C)(O)[C@@H]1CC=C(C)CC1 [Alpha bisabolol] | inactive: 1.11
[Na+].[O]=[Bi](=[O])[O-] [Sodium bismuthate] | inactive: 0.965
CC(=O)N[C@@H](CS)C(=O)O [n-Acetyl-l-cysteine] | inactive: 1.28
CC(=O)N[C@@H](CS)C(=O)O [Acetylcysteine (N-acetyl L-cysteine)] | inactive: 1.18
COc1cc(C2Oc3cc([C@H]4Oc5cc(O)cc(O)c5C(=O)[C@@H]4O)ccc3OC2CO)ccc1O (some centres undefined) [Silibinin] | inactive: 1.08
COc1cc(C2Oc3cc([C@H]4Oc5cc(O)cc(O)c5C(=O)[C@@H]4O)ccc3OC2CO)ccc1O (some centres undefined) [Silibinin (Silybin)] | inactive: 1.23
CN(C)CCn1nnnc1SCC1=C(C(=O)O)N2C(=O)[C@@H](NC(=O)Cc3csc(N)n3)[C@H]2SC1 [Cefotiam hydrochloride] | inactive: 1.01
CC(C)CCCC(C)N (centres undefined) [Octodrine (1,5 dimethyhexylamine)] | inactive: 1.14
CNC[C@H](O)[C@@H](O)[C@H](O)[C@H](O)CO [Meglumine (N-Methyl-D-glucamine)] | inactive: 1.21
N.N.O=C([O-])C[O-].[Pt+2] [Nedaplatin] | inactive: 0.837
CC1=CC(=C(c2ccc(N)cc2)c2ccc(N)cc2)C=CC1=N [Basic fuchsin hydrochloride] | inactive: 1.12
c1ccc2cc3ccccc3cc2c1 [Anthracene] | inactive: 1.3
COc1ccc(C[C@H](N)C(=O)N[C@H]2[C@@H](O)[C@H](n3cnc4c(N(C)C)ncnc43)O[C@@H]2CO)cc1 [Puromycin] | inactive: 0.253
NC(=O)OCC(COC(N)=O)c1ccccc1 [Felbamate] | inactive: 0.551
CCC[S+]([O-])c1ccc2[nH]c(NC(=O)OC)nc2c1 (centres undefined) [Ricobendazole (Albendazole oxide)] | inactive: 1.07
Cc1ccnc(NS(=O)(=O)c2ccc(N)cc2)n1 [Sulfamerazine] | inactive: 0.989
CC(C)n1c(/C=C/C(O)CC(O)CC(=O)O)c(-c2ccc(F)cc2)c2ccccc21 (centres undefined) [Fluvastatin sodium salt] | inactive: 0.891
N.N.O=S(=O)(O)O [Ammonium sulfate] | inactive: 0.987
Cc1cc(O)c(C(C)C)cc1Cl [Chlorothymol (4-Chloro-2-isopropyl-5-methylphenol)] | inactive: 1.16
CCCCC(CC)COS(=O)(=O)O (centres undefined) [Sodium ethasulfate (Sodium-2-ethylhexyl sulfate)] | inactive: 0.836

Laid out differently: results already given
Compound,cell-surface Lgr5 expression
O=C(O)c1cccnc1 [Nicotinic Acid (niacin)],inactive: 0.992
CC[C@H](C)C(=O)O[C@H]1C[C@H](O)C=C2C=C[C@H](C)[C@H](CC[C@@H]3C[C@@H](O)CC(=O)O3)[C@H]21 [Pravastatin lactone],inactive: 1.09
Cc1ccnc(NS(=O)(=O)c2ccc(N)cc2)n1 [Sulfamerazine],inactive: 0.989

An excerpt of these results, tab-delimited:
Compound	cell-surface Lgr5 expression
CC(C)=CCC[C@](C)(O)[C@@H]1CC=C(C)CC1 [Alpha bisabolol]	inactive: 1.11
[Na+].[O]=[Bi](=[O])[O-] [Sodium bismuthate]	inactive: 0.965

Reference: the supplement of paper PMC4683952
